In the assay the target is FLAG-tagged Vps13B (not stated (human or mouse cDNA cloned)) (UniProt Q7Z7G8). Kind of assay: co-IP; lysates of cells expressing Vps13B-FLAG and GFP-Stx13, GFP-ΔN-Stx13 or GFP-Stx13-Stx6 chimera; immunoprecipitated with anti-FLAG antibody, immunoblot for GFP.

The chains behind the UniProt entries cited, without tags or fusion partners. Where a name states a change or a piece, a line headed by the entry shows the natural chain unless it says otherwise.
UniProt Q7Z7G8: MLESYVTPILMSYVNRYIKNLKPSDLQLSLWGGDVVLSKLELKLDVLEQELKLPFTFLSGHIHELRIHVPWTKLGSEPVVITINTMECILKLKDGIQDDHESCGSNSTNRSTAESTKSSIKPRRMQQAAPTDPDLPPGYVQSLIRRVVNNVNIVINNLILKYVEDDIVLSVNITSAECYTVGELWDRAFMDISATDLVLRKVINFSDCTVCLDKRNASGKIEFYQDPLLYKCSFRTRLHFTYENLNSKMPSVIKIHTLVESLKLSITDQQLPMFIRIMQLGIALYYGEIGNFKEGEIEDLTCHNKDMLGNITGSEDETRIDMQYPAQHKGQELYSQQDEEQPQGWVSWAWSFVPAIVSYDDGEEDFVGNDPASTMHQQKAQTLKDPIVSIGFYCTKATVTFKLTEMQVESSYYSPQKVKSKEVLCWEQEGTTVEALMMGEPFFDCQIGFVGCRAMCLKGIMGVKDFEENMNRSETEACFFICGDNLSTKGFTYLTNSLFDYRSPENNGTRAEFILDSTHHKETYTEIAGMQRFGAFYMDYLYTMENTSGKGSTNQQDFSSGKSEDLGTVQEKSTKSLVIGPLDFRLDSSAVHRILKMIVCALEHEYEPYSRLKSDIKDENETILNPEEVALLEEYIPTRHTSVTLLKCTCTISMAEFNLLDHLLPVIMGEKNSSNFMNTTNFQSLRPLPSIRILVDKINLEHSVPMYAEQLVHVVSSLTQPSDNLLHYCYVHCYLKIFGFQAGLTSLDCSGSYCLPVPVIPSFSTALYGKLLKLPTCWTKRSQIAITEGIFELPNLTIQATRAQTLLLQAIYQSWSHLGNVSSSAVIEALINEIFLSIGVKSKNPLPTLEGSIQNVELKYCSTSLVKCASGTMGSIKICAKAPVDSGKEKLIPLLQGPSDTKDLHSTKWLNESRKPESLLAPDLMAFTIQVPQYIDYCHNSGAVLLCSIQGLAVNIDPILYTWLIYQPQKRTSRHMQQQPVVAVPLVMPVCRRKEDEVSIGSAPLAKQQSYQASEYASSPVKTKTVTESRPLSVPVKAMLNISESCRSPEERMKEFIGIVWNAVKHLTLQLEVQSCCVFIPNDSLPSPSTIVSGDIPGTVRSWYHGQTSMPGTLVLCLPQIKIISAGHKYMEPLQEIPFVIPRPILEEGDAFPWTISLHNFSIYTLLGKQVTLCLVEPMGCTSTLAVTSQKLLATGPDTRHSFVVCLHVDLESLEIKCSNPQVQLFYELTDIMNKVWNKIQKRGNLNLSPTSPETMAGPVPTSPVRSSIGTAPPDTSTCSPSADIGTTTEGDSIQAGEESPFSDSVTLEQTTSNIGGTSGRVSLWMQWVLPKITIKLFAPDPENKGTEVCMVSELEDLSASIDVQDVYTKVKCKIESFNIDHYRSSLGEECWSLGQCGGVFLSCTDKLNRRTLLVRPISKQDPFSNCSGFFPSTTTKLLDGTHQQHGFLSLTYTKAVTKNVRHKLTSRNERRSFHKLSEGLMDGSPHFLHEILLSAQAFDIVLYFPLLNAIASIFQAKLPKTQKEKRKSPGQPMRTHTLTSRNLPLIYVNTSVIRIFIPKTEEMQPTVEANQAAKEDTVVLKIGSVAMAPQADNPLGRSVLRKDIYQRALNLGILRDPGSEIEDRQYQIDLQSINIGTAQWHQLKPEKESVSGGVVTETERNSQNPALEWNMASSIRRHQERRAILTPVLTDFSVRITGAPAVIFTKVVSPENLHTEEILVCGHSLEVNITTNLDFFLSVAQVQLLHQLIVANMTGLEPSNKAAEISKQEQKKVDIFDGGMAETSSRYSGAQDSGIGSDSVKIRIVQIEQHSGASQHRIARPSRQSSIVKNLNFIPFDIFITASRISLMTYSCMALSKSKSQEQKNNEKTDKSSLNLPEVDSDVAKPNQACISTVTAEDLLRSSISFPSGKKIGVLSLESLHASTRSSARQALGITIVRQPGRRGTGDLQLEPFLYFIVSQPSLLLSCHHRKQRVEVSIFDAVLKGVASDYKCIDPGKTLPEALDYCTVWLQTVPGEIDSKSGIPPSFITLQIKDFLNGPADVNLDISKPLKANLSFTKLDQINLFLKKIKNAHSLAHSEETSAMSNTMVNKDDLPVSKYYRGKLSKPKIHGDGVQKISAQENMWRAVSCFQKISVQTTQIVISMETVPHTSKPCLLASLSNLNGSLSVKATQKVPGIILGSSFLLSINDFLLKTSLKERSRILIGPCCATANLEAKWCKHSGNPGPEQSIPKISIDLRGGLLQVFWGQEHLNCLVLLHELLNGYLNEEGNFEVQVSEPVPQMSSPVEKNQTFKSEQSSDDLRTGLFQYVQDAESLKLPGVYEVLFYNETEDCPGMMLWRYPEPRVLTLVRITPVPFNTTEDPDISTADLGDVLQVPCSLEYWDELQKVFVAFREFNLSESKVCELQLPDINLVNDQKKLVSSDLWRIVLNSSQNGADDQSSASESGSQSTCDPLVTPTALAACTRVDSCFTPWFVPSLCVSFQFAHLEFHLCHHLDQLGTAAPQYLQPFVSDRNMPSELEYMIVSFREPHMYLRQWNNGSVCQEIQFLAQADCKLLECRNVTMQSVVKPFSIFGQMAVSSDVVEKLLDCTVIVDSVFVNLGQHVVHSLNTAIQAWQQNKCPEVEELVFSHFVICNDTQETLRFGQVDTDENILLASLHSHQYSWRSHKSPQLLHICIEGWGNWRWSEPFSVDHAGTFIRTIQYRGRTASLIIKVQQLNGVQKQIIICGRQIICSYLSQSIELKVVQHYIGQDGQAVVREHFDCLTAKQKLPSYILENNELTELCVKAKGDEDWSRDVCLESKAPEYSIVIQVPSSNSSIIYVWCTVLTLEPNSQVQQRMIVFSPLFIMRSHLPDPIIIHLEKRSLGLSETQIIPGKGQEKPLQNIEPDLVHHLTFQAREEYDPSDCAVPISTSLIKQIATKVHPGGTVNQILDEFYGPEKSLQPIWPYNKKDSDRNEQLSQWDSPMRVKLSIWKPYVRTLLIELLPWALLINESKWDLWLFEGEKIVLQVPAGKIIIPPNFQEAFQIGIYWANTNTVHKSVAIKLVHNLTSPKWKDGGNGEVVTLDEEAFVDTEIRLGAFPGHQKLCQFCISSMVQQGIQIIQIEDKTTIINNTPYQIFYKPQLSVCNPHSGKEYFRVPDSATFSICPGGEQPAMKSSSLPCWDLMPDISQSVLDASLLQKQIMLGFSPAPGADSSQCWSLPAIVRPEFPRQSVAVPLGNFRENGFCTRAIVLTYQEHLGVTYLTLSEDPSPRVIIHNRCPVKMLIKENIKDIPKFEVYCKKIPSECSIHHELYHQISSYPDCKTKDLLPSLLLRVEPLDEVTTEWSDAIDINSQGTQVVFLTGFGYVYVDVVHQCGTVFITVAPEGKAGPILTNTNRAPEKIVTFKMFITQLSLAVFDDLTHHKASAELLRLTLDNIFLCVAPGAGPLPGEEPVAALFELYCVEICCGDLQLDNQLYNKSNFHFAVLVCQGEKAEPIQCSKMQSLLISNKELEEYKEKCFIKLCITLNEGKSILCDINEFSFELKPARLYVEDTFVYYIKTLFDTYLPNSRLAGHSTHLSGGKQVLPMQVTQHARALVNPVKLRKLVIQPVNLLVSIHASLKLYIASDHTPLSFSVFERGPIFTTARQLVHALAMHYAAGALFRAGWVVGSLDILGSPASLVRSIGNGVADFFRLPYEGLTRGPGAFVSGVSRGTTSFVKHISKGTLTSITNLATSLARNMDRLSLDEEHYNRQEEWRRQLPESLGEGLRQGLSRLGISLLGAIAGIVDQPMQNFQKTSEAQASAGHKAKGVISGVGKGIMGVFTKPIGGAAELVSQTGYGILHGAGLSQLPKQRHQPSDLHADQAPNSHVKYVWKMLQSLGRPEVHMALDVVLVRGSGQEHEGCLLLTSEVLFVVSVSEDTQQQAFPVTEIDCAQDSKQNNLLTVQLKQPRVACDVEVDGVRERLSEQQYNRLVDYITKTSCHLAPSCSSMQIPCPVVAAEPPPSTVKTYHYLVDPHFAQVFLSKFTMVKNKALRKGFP

These are yes or no findings as the source states them, for the method shown. In cells and extracts the contact can be indirect. Binding calls can cover weak binding; strength is not graded here. Sequences can lack the tags named with a protein.

On to “GFP-ΔN-Stx13 (Stx13 with the N-terminal domain truncated) (from UniProt G3V7P1) (domain or fragment)”, for which the binding result was “no binding”.

B1: GFP-tagged Stx13 (protein, UniProt G3V7P1 1-274)
chain: MSYGPLDMYRNPGPSGPQPRDFNSIIQTCSGNIQRISQATAQIKNLMSQLGTKQDSSKLQENLQQFQHSTNQLAKETNELLKELGSLPLPLSASEQRQQKLQKERLMNDFSSALNNFQVVQRKVSEKEKESIARARAGSRLSAEDRQREEQLVSFDSHEEWNQMQSQEEEAAITEQDLELIKERETAIQQLEADILDVNQIFKDLAMMIHDQGDLIDSIEANVESSEVHVERASDQLQRAAYYQKKSRKKMCILVLVLSVIVTVLVVVIWVASK
For B1, the binding result was “binds”.

The values above are taken from PMC6453939.
